Reference: paper PMC5562708
Results are given in words; binding and its absence hold for the method and conditions named. Binding seen in cells or lysates may run through a third protein. Some entries that bind do so weakly or less than the wild type. Tags and fused reporters may be left off the sequences shown.

The chains behind the UniProt entries cited, without tags or fusion partners. Residues count along the entry.
UniProt Q13873, residues 27-1038: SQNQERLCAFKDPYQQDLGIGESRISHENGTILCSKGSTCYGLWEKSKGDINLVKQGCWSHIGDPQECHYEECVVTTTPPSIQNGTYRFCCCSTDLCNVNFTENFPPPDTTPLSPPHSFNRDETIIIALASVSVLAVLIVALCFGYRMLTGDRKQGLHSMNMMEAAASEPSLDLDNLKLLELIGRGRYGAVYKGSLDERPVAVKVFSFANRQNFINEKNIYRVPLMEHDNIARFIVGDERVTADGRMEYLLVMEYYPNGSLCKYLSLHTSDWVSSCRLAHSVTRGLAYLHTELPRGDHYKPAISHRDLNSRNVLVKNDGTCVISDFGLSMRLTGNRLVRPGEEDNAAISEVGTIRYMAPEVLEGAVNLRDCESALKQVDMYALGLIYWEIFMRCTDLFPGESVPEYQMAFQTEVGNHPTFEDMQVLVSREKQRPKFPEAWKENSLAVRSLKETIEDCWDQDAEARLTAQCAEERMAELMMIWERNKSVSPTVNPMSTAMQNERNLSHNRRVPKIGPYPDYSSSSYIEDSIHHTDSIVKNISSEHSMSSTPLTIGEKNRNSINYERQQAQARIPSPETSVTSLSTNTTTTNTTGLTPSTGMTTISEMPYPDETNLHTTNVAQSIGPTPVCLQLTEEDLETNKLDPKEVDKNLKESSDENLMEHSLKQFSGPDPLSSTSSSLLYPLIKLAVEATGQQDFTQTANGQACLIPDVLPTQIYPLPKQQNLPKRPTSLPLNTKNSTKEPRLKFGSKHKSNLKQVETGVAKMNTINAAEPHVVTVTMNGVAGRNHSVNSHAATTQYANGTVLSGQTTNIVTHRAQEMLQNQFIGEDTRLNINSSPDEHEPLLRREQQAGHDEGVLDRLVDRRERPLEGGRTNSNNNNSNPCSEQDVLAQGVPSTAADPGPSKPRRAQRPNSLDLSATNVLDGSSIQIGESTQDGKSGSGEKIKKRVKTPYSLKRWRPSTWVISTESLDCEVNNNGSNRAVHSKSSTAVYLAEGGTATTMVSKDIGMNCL

Tests used:
[1] = biological target: T1, IRS2 (myc-tagged) (mouse) (UniProt P81122); test: co-IP; transfected HEK293T cells, lysed directly or starved 6 h and stimulated with 10 nM BMP2; RIPA or TNE buffer; IP with anti-myc (9E10) or anti-IRS4 antibody overnight, protein A sepharose; Western blot
T1 sequence: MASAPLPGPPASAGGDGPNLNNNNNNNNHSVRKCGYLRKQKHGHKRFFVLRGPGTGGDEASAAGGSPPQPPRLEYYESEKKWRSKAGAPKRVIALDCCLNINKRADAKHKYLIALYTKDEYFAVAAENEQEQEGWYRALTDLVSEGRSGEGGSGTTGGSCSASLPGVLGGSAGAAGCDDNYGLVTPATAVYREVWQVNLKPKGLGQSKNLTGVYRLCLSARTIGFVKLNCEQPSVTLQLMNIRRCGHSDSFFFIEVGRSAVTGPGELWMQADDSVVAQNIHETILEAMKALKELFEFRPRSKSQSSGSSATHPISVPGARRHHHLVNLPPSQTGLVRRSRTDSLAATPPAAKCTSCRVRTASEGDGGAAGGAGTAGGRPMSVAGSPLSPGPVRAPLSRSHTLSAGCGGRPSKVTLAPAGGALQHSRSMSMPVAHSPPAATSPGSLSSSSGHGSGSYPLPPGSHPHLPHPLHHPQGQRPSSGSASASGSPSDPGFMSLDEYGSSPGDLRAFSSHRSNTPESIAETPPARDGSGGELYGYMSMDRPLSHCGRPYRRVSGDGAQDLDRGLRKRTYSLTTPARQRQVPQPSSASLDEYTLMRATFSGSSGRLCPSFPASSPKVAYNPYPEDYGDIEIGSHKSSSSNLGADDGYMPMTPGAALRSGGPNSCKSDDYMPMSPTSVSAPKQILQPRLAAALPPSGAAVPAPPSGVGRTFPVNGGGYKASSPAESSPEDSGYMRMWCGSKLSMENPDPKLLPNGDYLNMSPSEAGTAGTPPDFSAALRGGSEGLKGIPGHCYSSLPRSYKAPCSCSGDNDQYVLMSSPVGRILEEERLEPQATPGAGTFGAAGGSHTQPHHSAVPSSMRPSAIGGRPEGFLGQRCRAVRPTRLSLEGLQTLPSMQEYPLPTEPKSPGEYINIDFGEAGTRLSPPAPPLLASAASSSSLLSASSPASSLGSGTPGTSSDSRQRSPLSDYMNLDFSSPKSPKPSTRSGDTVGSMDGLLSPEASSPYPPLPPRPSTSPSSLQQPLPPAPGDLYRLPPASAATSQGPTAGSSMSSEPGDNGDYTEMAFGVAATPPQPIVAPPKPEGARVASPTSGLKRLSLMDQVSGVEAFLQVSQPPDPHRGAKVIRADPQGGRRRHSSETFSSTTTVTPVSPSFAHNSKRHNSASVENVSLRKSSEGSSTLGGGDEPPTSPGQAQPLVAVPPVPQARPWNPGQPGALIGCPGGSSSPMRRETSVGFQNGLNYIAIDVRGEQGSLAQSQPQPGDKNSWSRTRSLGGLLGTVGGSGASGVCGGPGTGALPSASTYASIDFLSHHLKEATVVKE

[2] = biological target: T2, IRS4 V906 truncation (myc-tagged) (mouse) (UniProt Q9Z0Y7); test: as above
T2 sequence: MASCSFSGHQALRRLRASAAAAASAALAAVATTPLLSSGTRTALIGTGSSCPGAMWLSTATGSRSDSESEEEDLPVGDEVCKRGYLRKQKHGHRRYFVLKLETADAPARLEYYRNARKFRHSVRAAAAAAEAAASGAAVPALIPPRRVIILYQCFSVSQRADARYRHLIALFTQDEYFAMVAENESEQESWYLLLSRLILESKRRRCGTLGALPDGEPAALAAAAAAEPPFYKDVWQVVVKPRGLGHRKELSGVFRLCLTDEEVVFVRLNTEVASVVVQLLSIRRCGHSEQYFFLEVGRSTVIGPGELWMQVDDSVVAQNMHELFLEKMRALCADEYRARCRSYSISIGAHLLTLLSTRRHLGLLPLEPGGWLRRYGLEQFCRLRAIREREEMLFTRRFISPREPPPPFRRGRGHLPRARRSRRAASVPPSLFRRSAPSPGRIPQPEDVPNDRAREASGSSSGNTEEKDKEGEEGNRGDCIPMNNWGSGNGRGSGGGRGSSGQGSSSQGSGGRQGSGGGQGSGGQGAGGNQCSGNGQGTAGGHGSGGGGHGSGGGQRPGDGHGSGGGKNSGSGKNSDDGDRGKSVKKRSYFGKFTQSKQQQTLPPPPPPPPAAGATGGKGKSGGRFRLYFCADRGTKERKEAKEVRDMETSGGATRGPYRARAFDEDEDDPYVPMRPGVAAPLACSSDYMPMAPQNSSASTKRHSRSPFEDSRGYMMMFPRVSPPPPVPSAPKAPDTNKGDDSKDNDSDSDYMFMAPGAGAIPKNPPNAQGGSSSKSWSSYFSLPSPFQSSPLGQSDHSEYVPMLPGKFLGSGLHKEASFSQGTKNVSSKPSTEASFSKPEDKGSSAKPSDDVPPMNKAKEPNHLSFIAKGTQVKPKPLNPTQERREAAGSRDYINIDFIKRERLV

Substance: HA-tagged BMPRII long form (HA-BMPRII-LF) (from UniProt Q13873 27-1038) (receptor)
- binding [1]: binds
- binding [2]: binds
